These are yes or no findings as the source states them, for the method shown. Binding calls can cover weak binding; strength is not graded here.

The test addresses Keyhole limpet hemocyanin containing AGEs derived from glyceraldehyde (Glycer-AGEs-KLH) (keyhole limpet). As to the kind of experiment: ELISA of hybridoma culture supernatant on immobilised antigen. (In general: An ELISA detects its analyte on a solid surface through an enzyme-linked reagent.)

B1: novel monoclonal antibody PB-1 (antibody, V domains shown)
VH: EVRLQQSGPELVKPGTSVKISCKASGYSFTGYYMHWVKQSPVKSLEWIGRIIPYNGATSYNQNFKDKASLTVDKSSRTAYMDLHSLTSEDSAVYYCARSRYYGRAPYYFDYWGQGTTLTVSS
VL: DVVVTQTPLSLPVSLGDQASISCRSSQSIVHSNGNTYLEWYLQKPGQSPKLLIYKVSNRFSGVPDRISGSGSGTDFTLKISRVEAGDLGVYSCFQGSHVPFTFGSGTKLEIK
Turning to B1, the binding result was “binds”.

The values are drawn from patent publication US20210221879A1.
